The supplement of paper PMC7661543
± gives the standard deviation of the averaged measurements. Differences between knockout arms are mostly noise.

Tested on: HCC-38
Test: relative cell number vs DMSO control (72 h) (% of DMSO); higher = less growth inhibition (more cells)
Procedure: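 QMAP-Seq: a pool of 5 breast cancer cell lines (ZR-75-1, SKBR3, HCC-38, MDA-MB-231, BT-20), each carrying 12 doxycycline-inducible Cas9 sgRNA perturbations (11 knockouts plus non-targeting sgNT), was treated with compounds for 72 h at four 10-fold doses (10 nM-10 uM or 1 nM-1 uM range). Barcodes were amplified and sequenced, and cell number was interpolated from 293T spike-in standard curves. The result is expressed as % of the median of DMSO wells. Two biological replicates.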

Cc1nc(Nc2ncc(C(=O)Nc3c(C)cccc3Cl)s2)cc(N2CCN(CCO)CC2)n1 [Dasatinib]
Details | relative cell number
sgRNA knockout: sgATF3, 10 nM | 94.4 ± 6.1
sgRNA knockout: sgATF3, 100 nM | 71.1 ± 10
sgRNA knockout: sgATF3, 1000 nM | 64.3 ± 1.5
sgRNA knockout: sgATF3, 10000 nM | 37.5 ± 1.1
sgRNA knockout: sgATF4, 10 nM | 99.6 ± 20
sgRNA knockout: sgATF4, 100 nM | 76.5 ± 14
sgRNA knockout: sgATF4, 1000 nM | 62 ± 10
sgRNA knockout: sgATF4, 10000 nM | 38.1 ± 6
sgRNA knockout: sgATF6, 10 nM | 89.2 ± 28
sgRNA knockout: sgATF6, 100 nM | 64.7 ± 9.6
sgRNA knockout: sgATF6, 1000 nM | 80.8 ± 7.8
sgRNA knockout: sgATF6, 10000 nM | 41.9 ± 9.5
sgRNA knockout: sgATG7, 10 nM | 96.3 ± 3.6
sgRNA knockout: sgATG7, 100 nM | 68.5 ± 9
sgRNA knockout: sgATG7, 1000 nM | 64 ± 3.9
sgRNA knockout: sgATG7, 10000 nM | 33.1 ± 5
sgRNA knockout: sgERN1, 10 nM | 78.5 ± 6.8
sgRNA knockout: sgERN1, 100 nM | 63.5 ± 4
sgRNA knockout: sgERN1, 1000 nM | 59.2 ± 6.8
sgRNA knockout: sgERN1, 10000 nM | 38.7 ± 3.9
sgRNA knockout: sgHSF1, 10 nM | 77.4 ± 4.5
sgRNA knockout: sgHSF1, 100 nM | 75.6 ± 16
sgRNA knockout: sgHSF1, 1000 nM | 77.2 ± 13
sgRNA knockout: sgHSF1, 10000 nM | 27 ± 11
sgRNA knockout: sgHSF2, 10 nM | 87.7 ± 15
sgRNA knockout: sgHSF2, 100 nM | 68.2 ± 2.2
sgRNA knockout: sgHSF2, 1000 nM | 65.6 ± 0.75
sgRNA knockout: sgHSF2, 10000 nM | 31.3 ± 4
sgRNA knockout: sgKEAP1, 10 nM | 86.3 ± 24
sgRNA knockout: sgKEAP1, 100 nM | 70.5 ± 3.1
sgRNA knockout: sgKEAP1, 1000 nM | 80.7 ± 8.2
sgRNA knockout: sgKEAP1, 10000 nM | 27.6 ± 2.1
sgRNA knockout: sgNFE2L2, 10 nM | 90.6 ± 15
sgRNA knockout: sgNFE2L2, 100 nM | 61.3 ± 8
sgRNA knockout: sgNFE2L2, 1000 nM | 54.6 ± 8.4
sgRNA knockout: sgNFE2L2, 10000 nM | 32.3 ± 4.2
sgRNA knockout: sgSLC35F2, 10 nM | 95.01 ± 0.37
sgRNA knockout: sgSLC35F2, 100 nM | 60.9 ± 2.4
sgRNA knockout: sgSLC35F2, 1000 nM | 62.6 ± 7.4
sgRNA knockout: sgSLC35F2, 10000 nM | 32.7 ± 4.1
sgRNA knockout: sgXBP1, 10 nM | 88.2 ± 8.9
sgRNA knockout: sgXBP1, 100 nM | 65 ± 13
sgRNA knockout: sgXBP1, 1000 nM | 60.7 ± 9.2
sgRNA knockout: sgXBP1, 10000 nM | 37.6 ± 1.3

C#Cc1cccc(Nc2ncnc3cc(OCCOC)c(OCCOC)cc23)c1 [Erlotinib]
Details | relative cell number
sgRNA knockout: sgATF3, 10 nM | 111 ± 8.1
sgRNA knockout: sgATF3, 100 nM | 87.8 ± 10
sgRNA knockout: sgATF3, 1000 nM | 105 ± 5
sgRNA knockout: sgATF3, 10000 nM | 96.5 ± 7.4
sgRNA knockout: sgATF4, 10 nM | 112 ± 2.6
sgRNA knockout: sgATF4, 100 nM | 94.2 ± 3.7
sgRNA knockout: sgATF4, 1000 nM | 103.1 ± 0.9
sgRNA knockout: sgATF4, 10000 nM | 87.62 ± 0.71
sgRNA knockout: sgATF6, 10 nM | 107 ± 21
sgRNA knockout: sgATF6, 100 nM | 101 ± 6.5
sgRNA knockout: sgATF6, 1000 nM | 116 ± 14
sgRNA knockout: sgATF6, 10000 nM | 97.1 ± 14
sgRNA knockout: sgATG7, 10 nM | 107 ± 11
sgRNA knockout: sgATG7, 100 nM | 87.9 ± 6.8
sgRNA knockout: sgATG7, 1000 nM | 104 ± 3.4
sgRNA knockout: sgATG7, 10000 nM | 90.5 ± 11
sgRNA knockout: sgERN1, 10 nM | 108 ± 1.9
sgRNA knockout: sgERN1, 100 nM | 90 ± 4
sgRNA knockout: sgERN1, 1000 nM | 105 ± 7.5
sgRNA knockout: sgERN1, 10000 nM | 99.1 ± 13
sgRNA knockout: sgHSF1, 10 nM | 125 ± 4.4
sgRNA knockout: sgHSF1, 100 nM | 85.5 ± 6.6
sgRNA knockout: sgHSF1, 1000 nM | 107 ± 39
sgRNA knockout: sgHSF1, 10000 nM | 97.7 ± 3.5
sgRNA knockout: sgHSF2, 10 nM | 117 ± 5
sgRNA knockout: sgHSF2, 100 nM | 97.3 ± 10
sgRNA knockout: sgHSF2, 1000 nM | 102 ± 4.3
sgRNA knockout: sgHSF2, 10000 nM | 103 ± 15
sgRNA knockout: sgKEAP1, 10 nM | 128.2 ± 0.19
sgRNA knockout: sgKEAP1, 100 nM | 99.1 ± 4.7
sgRNA knockout: sgKEAP1, 1000 nM | 101 ± 22
sgRNA knockout: sgKEAP1, 10000 nM | 84.8 ± 27
sgRNA knockout: sgNFE2L2, 10 nM | 104 ± 2.1
sgRNA knockout: sgNFE2L2, 100 nM | 87.8 ± 9.8
sgRNA knockout: sgNFE2L2, 1000 nM | 97.6 ± 2.8
sgRNA knockout: sgNFE2L2, 10000 nM | 85.9 ± 1.6
sgRNA knockout: sgSLC35F2, 10 nM | 107 ± 4.8
sgRNA knockout: sgSLC35F2, 100 nM | 90.8 ± 8.8
sgRNA knockout: sgSLC35F2, 1000 nM | 104 ± 5.3
sgRNA knockout: sgSLC35F2, 10000 nM | 105 ± 2.8
sgRNA knockout: sgXBP1, 10 nM | 106 ± 8.8
sgRNA knockout: sgXBP1, 100 nM | 92 ± 7.5
sgRNA knockout: sgXBP1, 1000 nM | 102 ± 1.5
sgRNA knockout: sgXBP1, 10000 nM | 93.88 ± 0.53
